# System: Spodoptera littoralis larvae (laboratory strain of cotton leafworm)
# Experiment: Insecticidal leaf dip bioassay on S. littoralis larvae
# Settings: 72 hours, probit (LDP-line) slope
Compound,Slope (2nd instar larvae),Slope (4th instar larvae)
"O=C(COC(=O)Nc1ccccc1)NCCOC(=O)Nc1ccccc1 [Compound 2, 2-oxo-2-({2-[(phenylcarbamoyl)oxy]ethyl}amino)ethyl phenylcarbamate]",0.198 ± 0.0852,0.232 ± 0.0880
"CCOC(=O)NCCOc1ccc(Oc2ccccc2)cc1 [Fenoxycarb, reference compound]",0.298 ± 0.0808,0.225 ± 0.0870

# Reference: US12035717B1, “2-OXO-2-({2-[(phenylcarbamoyl)oxy]ethyl} amino)ethyl phenylcarbamate as an eco-friendly insecticidal agent against spodoptera littoralis (boisd.)” (priority 2024, dated 2024)
